Laboratory results from doi:10.1101/2023.10.26.562393.
Numbering of substitutions follows the chain as printed. These are yes or no findings as the source states them, for the method shown. Binding seen in cells or lysates may run through a third protein. Some results given as binding are weak or reduced against the parent protein; the word gives no strength. For part of these data: Tags and fused reporters may be left off the sequences shown.

Chains of the proteins cited; added tags and fusions are not shown. Lines headed by an entry give the natural chain unless they say otherwise; changes in a name come on top.
UniProt Q9UQ84: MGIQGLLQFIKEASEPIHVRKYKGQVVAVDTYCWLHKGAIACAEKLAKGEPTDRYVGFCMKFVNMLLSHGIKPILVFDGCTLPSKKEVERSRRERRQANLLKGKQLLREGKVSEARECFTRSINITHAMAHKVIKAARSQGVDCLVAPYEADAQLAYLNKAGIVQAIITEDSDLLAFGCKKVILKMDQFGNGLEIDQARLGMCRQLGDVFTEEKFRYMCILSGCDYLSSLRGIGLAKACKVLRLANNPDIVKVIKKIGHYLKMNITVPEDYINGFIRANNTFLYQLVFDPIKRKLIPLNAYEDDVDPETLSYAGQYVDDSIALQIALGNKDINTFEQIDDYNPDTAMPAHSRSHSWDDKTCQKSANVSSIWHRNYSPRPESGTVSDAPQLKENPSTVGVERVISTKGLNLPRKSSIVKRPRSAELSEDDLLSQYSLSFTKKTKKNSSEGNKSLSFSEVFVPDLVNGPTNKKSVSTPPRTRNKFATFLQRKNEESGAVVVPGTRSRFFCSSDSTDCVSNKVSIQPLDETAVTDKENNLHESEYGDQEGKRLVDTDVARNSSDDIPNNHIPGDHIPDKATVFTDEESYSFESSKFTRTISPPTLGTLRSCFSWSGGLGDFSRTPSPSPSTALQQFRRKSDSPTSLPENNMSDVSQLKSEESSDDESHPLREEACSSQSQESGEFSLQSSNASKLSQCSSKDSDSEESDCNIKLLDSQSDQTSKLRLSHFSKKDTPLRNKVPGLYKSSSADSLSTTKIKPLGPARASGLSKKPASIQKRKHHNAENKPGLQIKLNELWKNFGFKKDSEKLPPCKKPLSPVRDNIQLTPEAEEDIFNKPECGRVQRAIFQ

Legend:
Assay in all cases: co-IP
[1] = molecular target: T1, Flag-tagged RRM2 F52A (UniProt P31350)
T1 sequence: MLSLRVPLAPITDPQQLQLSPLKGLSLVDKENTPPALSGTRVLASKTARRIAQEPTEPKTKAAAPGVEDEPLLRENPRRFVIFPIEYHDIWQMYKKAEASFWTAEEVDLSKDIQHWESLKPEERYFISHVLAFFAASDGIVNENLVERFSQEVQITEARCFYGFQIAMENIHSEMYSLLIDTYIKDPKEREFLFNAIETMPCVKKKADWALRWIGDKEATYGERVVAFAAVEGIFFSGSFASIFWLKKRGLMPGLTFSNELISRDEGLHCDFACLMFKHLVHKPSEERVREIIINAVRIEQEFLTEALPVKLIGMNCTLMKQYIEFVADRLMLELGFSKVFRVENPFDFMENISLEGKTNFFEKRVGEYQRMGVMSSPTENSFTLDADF

[2] = molecular target: GFP-EXO1 R842A (UniProt Q9UQ84)
[3] = molecular target: GFP-EXO1 WT (UniProt Q9UQ84)
[4] = molecular target: T2, Flag-tagged RRM2 Q53A (UniProt P31350)
T2 sequence: T1 sequence with A52F, Q53A

[5] = molecular target: EXO1 WT (construct of Figure 4C) (UniProt Q9UQ84)
[6] = molecular target: GFP-EXO1 I844A (UniProt Q9UQ84)
[7] = molecular target: T3, Flag-tagged RRM2 WT (UniProt P31350)
T3 sequence: T1 sequence with A52F

[8] = molecular target: GFP-EXO1 Q846A (UniProt Q9UQ84)
[9] = molecular target: GFP-EXO1 F845A (UniProt Q9UQ84)
[10] = molecular target: T4, Flag-tagged RRM2 R49A (UniProt P31350)
T4 sequence: T1 sequence with R49A, A52F

[11] = molecular target: GFP-EXO1 T824A (UniProt Q9UQ84)
[12] = molecular target: T5, Flag-tagged RRM2 I51A (UniProt P31350)
T5 sequence: T1 sequence with I51A, A52F

binding [1]: no binding | binding [2]: no binding | binding [3]: binds | binding [4]: binds | binding [5]: binds | binding [6]: no binding | binding [7]: binds | binding [8]: binds | binding [9]: no binding | binding [10]: no binding | binding [11]: no binding | binding [12]: no binding
B1: endogenous cyclin F (HEK293T) (protein, UniProt P41002 1-786)
chain: MGSGGVVHCRCAKCFCYPTKRRIRRRPRNLTILSLPEDVLFHILKWLSVEDILAVRAVHSQLKDLVDNHASVWACASFQELWPSPGNLKLFERAAEKGNFEAAVKLGIAYLYNEGLSVSDEARAEVNGLKASRFFSLAERLNVGAAPFIWLFIRPPWSVSGSCCKAVVHESLRAECQLQRTHKASILHCLGRVLSLFEDEEKQQQAHDLFEEAAHQGCLTSSYLLWESDRRTDVSDPGRCLHSFRKLRDYAAKGCWEAQLSLAKACANANQLGLEVRASSEIVCQLFQASQAVSKQQVFSVQKGLNDTMRYILIDWLVEVATMKDFTSLCLHLTVECVDRYLRRRLVPRYRLQLLGIACMVICTRFISKEILTIREAVWLTDNTYKYEDLVRMMGEIVSALEGKIRVPTVVDYKEVLLTLVPVELRTQHLCSFLCELSLLHTSLSAYAPARLAAAALLLARLTHGQTQPWTTQLWDLTGFSYEDLIPCVLSLHKKCFHDDAPKDYRQVSLTAVKQRFEDKRYGEISQEEVLSYSQLCAALGVTQDSPDPPTFLSTGEIHAFLSSPSGRRTKRKRENSLQEDRGSFVTTPTAELSSQEETLLGSFLDWSLDCCSGYEGDQESEGEKEGDVTAPSGILDVTVVYLNPEQHCCQESSDEEACPEDKGPQDPQALALDTQIPATPGPKPLVRTSREPGKDVTTSGYSSVSTASPTSSVDGGLGALPQPTSVLSLDSDSHTQPCHHQARKSCLQCRPPSPPESSVPQQQVKRINLCIHSEEEDMNLGLVRL
